This is one part of the list.
Key:
Assay in all cases: log2 fold change, soluble protein after heating vs DMSO (PISA); higher = thermal stabilisation; K562 lysate, 10 uM; active = over 0.2 and 3.5 SD of the protein, either way, in both replicates (recomputed)
alvocidib = compound: CN1CC[C@H](c2c(O)cc(O)c3c(=O)cc(-c4ccccc4Cl)oc23)[C@H](O)C1 [alvocidib]
Procedure, shortened: (§1)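 A 30 min treatment with 10 μM compound was applied to crude K562 extract at 1 mg/mL protein in PBS pH 7.4 with 1 mM MgCl2. Heating for 3 min spanned 48°C-58°C, after which aliquots were pooled, adjusted to 0.5% NP-40 at 4°C and spun at 21,000xg for 90 min. TMTpro 16plex LC-MS/MS of the supernatant, with channel sums equalised, gave values recorded as log-two fold change in thermal stability against solvent controls, from duplicates.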

The chains behind the UniProt entries cited, without tags or fusion partners. Where a name states a change or a piece, a line headed by the entry shows the natural chain unless it says otherwise.
UniProt Q8WW01: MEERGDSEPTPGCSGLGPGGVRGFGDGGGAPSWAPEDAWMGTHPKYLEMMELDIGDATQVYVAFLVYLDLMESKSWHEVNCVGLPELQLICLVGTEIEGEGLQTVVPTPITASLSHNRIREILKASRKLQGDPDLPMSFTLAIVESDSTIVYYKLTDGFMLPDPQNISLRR
UniProt A5PLN9: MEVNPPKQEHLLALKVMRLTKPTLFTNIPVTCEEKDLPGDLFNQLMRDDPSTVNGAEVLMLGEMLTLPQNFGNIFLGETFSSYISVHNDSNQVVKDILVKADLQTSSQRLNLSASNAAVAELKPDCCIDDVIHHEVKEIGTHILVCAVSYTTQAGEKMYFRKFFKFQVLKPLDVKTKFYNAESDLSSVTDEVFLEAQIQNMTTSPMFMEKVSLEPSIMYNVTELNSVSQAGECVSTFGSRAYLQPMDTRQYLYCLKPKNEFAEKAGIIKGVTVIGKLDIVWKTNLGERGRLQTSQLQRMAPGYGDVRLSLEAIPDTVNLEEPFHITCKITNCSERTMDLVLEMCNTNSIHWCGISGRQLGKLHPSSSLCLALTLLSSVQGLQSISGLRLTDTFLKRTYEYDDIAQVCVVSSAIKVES
UniProt P33981: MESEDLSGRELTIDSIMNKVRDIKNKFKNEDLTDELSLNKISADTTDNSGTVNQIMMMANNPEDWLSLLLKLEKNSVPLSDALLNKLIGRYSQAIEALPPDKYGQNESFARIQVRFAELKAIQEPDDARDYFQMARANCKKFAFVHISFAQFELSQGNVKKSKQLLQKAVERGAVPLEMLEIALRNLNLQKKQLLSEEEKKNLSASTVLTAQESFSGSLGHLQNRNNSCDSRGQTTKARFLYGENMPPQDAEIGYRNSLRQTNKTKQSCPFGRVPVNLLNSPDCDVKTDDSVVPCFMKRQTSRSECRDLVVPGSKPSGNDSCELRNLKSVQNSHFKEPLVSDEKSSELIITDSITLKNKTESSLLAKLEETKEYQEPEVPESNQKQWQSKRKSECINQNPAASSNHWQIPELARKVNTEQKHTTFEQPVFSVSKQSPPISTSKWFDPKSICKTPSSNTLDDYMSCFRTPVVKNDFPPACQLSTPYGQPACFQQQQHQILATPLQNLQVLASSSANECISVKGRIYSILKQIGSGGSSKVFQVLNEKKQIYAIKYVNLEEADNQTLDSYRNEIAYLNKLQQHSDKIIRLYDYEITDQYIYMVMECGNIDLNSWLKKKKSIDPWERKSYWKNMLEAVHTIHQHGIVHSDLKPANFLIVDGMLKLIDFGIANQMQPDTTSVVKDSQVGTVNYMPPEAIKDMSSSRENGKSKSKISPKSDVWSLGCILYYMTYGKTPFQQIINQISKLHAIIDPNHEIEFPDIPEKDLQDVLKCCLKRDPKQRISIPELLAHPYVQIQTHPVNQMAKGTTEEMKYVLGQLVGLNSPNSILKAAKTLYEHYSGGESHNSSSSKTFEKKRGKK
UniProt Q15650: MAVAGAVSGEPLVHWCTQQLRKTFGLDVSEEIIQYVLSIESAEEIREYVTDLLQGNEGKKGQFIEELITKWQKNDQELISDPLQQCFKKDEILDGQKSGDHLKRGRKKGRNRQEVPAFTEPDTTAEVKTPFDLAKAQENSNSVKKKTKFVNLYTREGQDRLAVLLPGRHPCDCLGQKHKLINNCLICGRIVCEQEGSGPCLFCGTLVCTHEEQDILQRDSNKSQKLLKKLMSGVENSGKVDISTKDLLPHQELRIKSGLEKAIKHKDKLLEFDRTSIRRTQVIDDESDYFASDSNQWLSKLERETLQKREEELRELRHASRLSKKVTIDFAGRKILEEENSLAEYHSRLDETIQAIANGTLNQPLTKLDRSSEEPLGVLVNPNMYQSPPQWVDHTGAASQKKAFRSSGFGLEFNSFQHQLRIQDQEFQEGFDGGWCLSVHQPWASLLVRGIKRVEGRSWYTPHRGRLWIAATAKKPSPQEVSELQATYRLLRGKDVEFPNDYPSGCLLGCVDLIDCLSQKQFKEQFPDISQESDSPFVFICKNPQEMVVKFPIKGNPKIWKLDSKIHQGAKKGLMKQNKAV
UniProt O14545: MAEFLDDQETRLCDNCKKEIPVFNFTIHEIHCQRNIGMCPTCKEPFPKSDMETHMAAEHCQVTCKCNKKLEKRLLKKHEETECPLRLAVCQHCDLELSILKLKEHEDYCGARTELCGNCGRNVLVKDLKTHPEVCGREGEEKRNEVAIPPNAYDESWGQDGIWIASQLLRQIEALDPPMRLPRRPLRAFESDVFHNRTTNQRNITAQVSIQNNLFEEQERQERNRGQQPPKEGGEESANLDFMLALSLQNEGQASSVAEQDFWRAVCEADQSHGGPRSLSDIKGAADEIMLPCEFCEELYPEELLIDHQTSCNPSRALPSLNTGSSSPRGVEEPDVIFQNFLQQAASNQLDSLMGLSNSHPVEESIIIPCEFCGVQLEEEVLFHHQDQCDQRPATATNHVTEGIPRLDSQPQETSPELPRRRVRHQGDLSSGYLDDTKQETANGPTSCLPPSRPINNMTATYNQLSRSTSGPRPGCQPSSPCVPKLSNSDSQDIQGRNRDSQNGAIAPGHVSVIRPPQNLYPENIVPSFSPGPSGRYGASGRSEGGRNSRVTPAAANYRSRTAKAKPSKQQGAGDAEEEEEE
UniProt Q15629: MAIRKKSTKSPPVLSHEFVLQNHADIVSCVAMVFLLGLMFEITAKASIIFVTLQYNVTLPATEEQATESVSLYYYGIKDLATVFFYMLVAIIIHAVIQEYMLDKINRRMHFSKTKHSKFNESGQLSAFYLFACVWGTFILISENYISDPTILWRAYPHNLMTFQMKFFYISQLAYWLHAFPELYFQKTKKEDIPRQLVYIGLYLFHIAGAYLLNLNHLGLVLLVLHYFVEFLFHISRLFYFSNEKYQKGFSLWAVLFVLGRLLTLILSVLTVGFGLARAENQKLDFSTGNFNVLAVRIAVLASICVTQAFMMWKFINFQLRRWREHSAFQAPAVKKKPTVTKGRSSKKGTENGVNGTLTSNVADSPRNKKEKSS
UniProt Q8WVT3: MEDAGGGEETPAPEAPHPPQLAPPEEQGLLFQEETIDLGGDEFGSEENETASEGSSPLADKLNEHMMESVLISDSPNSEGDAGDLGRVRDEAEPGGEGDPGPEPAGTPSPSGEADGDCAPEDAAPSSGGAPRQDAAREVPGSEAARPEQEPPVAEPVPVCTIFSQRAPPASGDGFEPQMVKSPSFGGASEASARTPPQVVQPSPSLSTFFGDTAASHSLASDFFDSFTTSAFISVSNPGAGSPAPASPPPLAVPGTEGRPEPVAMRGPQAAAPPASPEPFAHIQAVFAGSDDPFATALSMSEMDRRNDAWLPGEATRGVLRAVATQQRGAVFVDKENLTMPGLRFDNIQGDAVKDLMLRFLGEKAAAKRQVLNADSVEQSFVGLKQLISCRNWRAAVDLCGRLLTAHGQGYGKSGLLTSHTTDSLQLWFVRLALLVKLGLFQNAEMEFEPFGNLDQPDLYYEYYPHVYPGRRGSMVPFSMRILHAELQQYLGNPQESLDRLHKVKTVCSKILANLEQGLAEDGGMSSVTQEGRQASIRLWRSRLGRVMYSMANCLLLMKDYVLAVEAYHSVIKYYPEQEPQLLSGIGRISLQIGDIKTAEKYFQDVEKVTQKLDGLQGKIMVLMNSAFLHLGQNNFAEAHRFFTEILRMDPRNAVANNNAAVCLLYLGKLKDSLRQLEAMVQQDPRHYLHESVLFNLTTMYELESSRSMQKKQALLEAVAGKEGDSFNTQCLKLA
UniProt P19474, whole entry, looked up: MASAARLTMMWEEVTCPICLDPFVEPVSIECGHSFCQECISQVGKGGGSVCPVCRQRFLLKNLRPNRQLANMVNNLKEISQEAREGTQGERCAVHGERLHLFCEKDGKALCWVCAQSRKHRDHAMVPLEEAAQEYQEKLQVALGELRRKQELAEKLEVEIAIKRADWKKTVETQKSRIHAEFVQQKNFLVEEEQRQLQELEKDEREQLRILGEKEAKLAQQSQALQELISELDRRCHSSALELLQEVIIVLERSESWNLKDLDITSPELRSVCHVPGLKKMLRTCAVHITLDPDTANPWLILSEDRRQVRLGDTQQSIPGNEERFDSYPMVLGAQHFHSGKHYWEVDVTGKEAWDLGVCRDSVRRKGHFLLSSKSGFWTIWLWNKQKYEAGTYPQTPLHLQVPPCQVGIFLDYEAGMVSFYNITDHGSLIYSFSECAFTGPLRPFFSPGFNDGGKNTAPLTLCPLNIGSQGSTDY
UniProt O75648: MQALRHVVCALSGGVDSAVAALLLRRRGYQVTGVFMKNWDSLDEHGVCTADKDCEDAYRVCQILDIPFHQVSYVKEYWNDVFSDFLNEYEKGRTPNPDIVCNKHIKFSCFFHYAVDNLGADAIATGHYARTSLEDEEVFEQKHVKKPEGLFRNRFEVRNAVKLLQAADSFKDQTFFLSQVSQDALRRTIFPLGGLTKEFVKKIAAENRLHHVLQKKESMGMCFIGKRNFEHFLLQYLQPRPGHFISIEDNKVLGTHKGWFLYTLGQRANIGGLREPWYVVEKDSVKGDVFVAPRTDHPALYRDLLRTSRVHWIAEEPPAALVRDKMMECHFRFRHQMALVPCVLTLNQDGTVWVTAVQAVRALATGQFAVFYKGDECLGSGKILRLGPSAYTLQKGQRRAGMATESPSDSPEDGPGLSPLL
UniProt Q9UPN9: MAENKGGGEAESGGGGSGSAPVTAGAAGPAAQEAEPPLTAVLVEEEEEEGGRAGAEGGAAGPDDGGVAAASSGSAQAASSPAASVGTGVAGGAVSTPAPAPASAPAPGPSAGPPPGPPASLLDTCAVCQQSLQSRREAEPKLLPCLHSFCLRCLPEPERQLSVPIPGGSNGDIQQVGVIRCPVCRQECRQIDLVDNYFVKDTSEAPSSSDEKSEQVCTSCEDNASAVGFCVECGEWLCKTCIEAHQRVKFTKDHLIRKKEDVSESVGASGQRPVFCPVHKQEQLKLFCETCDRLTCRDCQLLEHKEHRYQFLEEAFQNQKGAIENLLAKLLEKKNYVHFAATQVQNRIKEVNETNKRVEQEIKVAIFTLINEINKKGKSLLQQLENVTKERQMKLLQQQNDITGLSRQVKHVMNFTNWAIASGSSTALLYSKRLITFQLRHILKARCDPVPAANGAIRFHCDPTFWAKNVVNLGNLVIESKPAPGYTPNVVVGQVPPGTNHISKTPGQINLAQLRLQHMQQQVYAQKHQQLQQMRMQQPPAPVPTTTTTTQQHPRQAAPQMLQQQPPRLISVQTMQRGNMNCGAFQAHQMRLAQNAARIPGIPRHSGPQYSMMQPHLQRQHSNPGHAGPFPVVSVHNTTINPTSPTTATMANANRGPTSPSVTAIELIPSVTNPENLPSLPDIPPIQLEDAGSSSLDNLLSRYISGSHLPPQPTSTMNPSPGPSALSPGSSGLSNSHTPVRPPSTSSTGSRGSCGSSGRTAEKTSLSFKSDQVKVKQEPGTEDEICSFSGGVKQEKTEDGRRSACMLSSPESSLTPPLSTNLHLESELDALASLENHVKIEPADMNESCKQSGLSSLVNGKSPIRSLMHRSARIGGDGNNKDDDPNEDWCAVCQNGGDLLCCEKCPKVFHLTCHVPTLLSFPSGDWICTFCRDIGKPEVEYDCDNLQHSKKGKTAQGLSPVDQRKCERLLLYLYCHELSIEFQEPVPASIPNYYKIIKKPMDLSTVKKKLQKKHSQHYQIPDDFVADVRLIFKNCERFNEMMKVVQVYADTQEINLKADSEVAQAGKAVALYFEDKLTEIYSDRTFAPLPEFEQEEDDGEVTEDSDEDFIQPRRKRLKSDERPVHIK
UniProt Q7Z2T5: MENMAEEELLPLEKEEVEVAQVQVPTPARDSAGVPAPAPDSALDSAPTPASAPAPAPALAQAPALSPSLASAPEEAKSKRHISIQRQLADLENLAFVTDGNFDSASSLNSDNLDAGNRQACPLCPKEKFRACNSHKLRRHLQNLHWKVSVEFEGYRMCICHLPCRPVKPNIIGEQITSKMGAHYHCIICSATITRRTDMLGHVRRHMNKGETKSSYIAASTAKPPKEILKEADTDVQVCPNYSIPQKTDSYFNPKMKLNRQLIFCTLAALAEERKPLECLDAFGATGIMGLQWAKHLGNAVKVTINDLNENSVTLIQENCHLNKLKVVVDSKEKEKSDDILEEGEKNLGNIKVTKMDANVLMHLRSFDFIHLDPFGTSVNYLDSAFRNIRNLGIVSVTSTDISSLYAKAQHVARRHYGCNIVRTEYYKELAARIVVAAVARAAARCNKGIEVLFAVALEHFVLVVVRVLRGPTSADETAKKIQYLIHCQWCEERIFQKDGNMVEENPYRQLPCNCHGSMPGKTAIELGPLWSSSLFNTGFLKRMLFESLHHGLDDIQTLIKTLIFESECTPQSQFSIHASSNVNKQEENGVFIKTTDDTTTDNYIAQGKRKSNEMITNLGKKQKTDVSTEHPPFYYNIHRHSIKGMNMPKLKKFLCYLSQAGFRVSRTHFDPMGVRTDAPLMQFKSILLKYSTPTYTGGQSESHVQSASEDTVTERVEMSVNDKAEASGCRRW

Tubastatin A = compound: CN1CCc2c(c3ccccc3n2Cc2ccc(C(=O)NO)cc2)C1 [Tubastatin A]
Procedure, shortened: as §1

[1] = compound: CNC(=O)C1=CC=CC=C1NC2=NC(=NC=C2Cl)NC3=C(C=C(C=C3)N4CCOCC4)OC
Procedure, shortened: as §1

defactinib = compound: CNC(=O)c1ccc(Nc2ncc(C(F)(F)F)c(NCc3nccnc3N(C)S(C)(=O)=O)n2)cc1 [defactinib]
Procedure, shortened: as §1

[2] = compound: CNc1nc(-c2ccc3c(N)n[nH]c3c2)cc(N2C[C@@H](C(=O)NC3CCCCC3)CC[C@H]2C)n1
Procedure, shortened: as §1

encorafenib = compound: COC(=O)N[C@@H](C)CNc1nccc(-c2cn(C(C)C)nc2-c2cc(Cl)cc(NS(C)(=O)=O)c2F)n1 [encorafenib]
Procedure, shortened: as §1

[3] = compound: COC(=O)[C@H](CCSC)NC(=O)C1=C(C=C(C=C1)NC[C@H](CS)N)C2=CC=CC=C2
Procedure, shortened: as §1

alisertib = compound: COc1cc(Nc2ncc3c(n2)-c2ccc(Cl)cc2C(c2c(F)cccc2OC)=NC3)ccc1C(=O)O [alisertib]
Procedure, shortened: as §1

[4] = compound: COc1cc2nc(-c3cc(F)ccc3O)nc(N[C@@H]3CNC[C@H]3C(C)(C)O)c2cc1OC
Procedure, shortened: as §1

gefitinib = compound: COc1cc2ncnc(Nc3ccc(F)c(Cl)c3)c2cc1OCCCN1CCOCC1 [gefitinib]
Procedure, shortened: as §1

lapatinib = compound: CS(=O)(=O)CCNCc1ccc(-c2ccc3ncnc(Nc4ccc(OCc5cccc(F)c5)c(Cl)c4)c3c2)o1 [lapatinib]
Procedure, shortened: as §1

pictilisib = compound: CS(=O)(=O)N1CCN(Cc2cc3nc(-c4cccc5[nH]ncc45)nc(N4CCOCC4)c3s2)CC1 [pictilisib]
Procedure, shortened: as §1

crizotinib = compound: C[C@@H](Oc1cc(-c2cnn(C3CCNCC3)c2)cnc1N)c1c(Cl)ccc(F)c1Cl [crizotinib]
Procedure, shortened: as §1

[5] = compound: C[C@H](C1=CC=C(C=C1)C(=O)NC2=C3C=CNC3=NC=C2)N
Procedure, shortened: as §1

duvelisib = compound: C[C@H](Nc1ncnc2nc[nH]c12)c1cc2cccc(Cl)c2c(=O)n1-c1ccccc1 [duvelisib]
Procedure, shortened: as §1

gandotinib = compound: Cc1cc(Nc2cc(CN3CCOCC3)c3nc(C)c(Cc4ccc(Cl)cc4F)n3n2)n[nH]1 [gandotinib]
Procedure, shortened: as §1

tozasertib = compound: Cc1cc(Nc2cc(N3CCN(C)CC3)nc(Sc3ccc(NC(=O)C4CC4)cc3)n2)n[nH]1 [tozasertib]
Procedure, shortened: as §1

doramapimod = compound: Cc1ccc(-n2nc(C(C)(C)C)cc2NC(=O)Nc2ccc(OCCN3CCOCC3)c3ccccc23)cc1 [doramapimod]
Procedure, shortened: as §1

bafetinib = compound: Cc1ccc(NC(=O)c2ccc(CN3CC[C@H](N(C)C)C3)c(C(F)(F)F)c2)cc1Nc1nccc(-c2cncnc2)n1 [bafetinib]
Procedure, shortened: as §1

[6] = compound: Cc1cccc(CC(=O)N2CCc3c2ccc(-c2cn(C)c4ncnc(N)c24)c3F)n1
Procedure, shortened: as §1

| Target | log2 fold change (alvocidib) | log2 fold change (Tubastatin A) | log2 fold change [1] | log2 fold change (defactinib) | log2 fold change [2] | log2 fold change (encorafenib) | log2 fold change [3] | log2 fold change (alisertib) | log2 fold change [4] | log2 fold change (gefitinib) | log2 fold change (lapatinib) | log2 fold change (pictilisib) | log2 fold change (crizotinib) | log2 fold change [5] | log2 fold change (duvelisib) | log2 fold change (gandotinib) | log2 fold change (tozasertib) | log2 fold change (doramapimod) | log2 fold change (bafetinib) | log2 fold change [6] |
| --- | --- | --- | --- | --- | --- | --- | --- | --- | --- | --- | --- | --- | --- | --- | --- | --- | --- | --- | --- | --- |
| TSEN15 (UniProt Q8WW01) | inactive: 0.065 | inactive: 0.08 | inactive: 0.002 | inactive: 0.032 | inactive: 0.015 | inactive: 0.088 | inactive: 0.014 | inactive: 0.051 | inactive: -0.011 | inactive: -0.095 | inactive: 0.044 | inactive: -0.042 | inactive: -0.024 | inactive: 0.058 | inactive: -0.009 | inactive: 0.01 | inactive: 0.037 | inactive: 0.012 | inactive: -0.104 | inactive: -0.034 |
| TRAPPC13 isoform 4 (UniProt A5PLN9) | inactive: -0.003 | inactive: -0.078 | inactive: 0.06 | inactive: 0.084 | inactive: 0.083 | inactive: -0.008 | inactive: -0.038 | inactive: 0.009 | inactive: 0.035 | inactive: 0.041 | inactive: 0.001 | inactive: -0.057 | inactive: -0.028 | inactive: -0.066 | inactive: 0.004 | inactive: 0.068 | inactive: 0.04 | inactive: 0.061 | inactive: -0.009 | inactive: 0.047 |
| TTK (UniProt P33981) | inactive: -0.004 | inactive: -0.141 | active: 0.616 | active: 0.434 | inactive: 0.101 | inactive: 0.004 | inactive: -0.02 | inactive: 0.078 | inactive: 0.103 | inactive: -0.102 | inactive: 0.061 | inactive: 0.142 | inactive: -0.008 | inactive: 0 | inactive: -0.031 | inactive: 0.058 | inactive: -0.054 | inactive: 0.143 | inactive: -0.068 | inactive: 0.024 |
| TRIP4 (UniProt Q15650) | inactive: -0.01 | inactive: -0.027 | inactive: 0.004 | inactive: -0.171 | inactive: 0.066 | inactive: 0.003 | inactive: -0.073 | inactive: -0.006 | inactive: 0 | inactive: -0.037 | inactive: 0.004 | inactive: -0.003 | inactive: -0.037 | inactive: -0.031 | inactive: -0.019 | inactive: 0.009 | inactive: 0.044 | inactive: 0.027 | inactive: -0.06 | inactive: 0.079 |
| TRAFD1 (UniProt O14545) | inactive: -0.004 | inactive: 0.102 | inactive: 0.063 | inactive: 0.005 | inactive: -0.011 | inactive: 0.053 | inactive: -0.104 | inactive: 0.009 | inactive: -0.038 | inactive: -0.202 | inactive: 0.028 | inactive: 0.007 | inactive: -0.003 | inactive: -0.003 | inactive: -0.008 | inactive: -0.009 | inactive: 0.056 | inactive: 0.05 | inactive: -0.05 | inactive: 0.031 |
| TSC22D4 (UniProt Q9Y3Q8) | inactive: -0.015 | inactive: 0.012 | inactive: -0.002 | inactive: 0.001 | inactive: 0.015 | inactive: -0.004 | inactive: -0.006 | inactive: -0.015 | inactive: 0.011 | inactive: -0.015 | inactive: -0.008 | inactive: -0.03 | inactive: 0.006 | inactive: 0.012 | inactive: 0.026 | inactive: 0.013 | inactive: -0.015 | inactive: -0.011 | inactive: -0.038 | inactive: 0 |
| TTI2 (UniProt Q6NXR4) | inactive: -0.006 | inactive: -0.081 | inactive: 0.03 | inactive: 0.069 | inactive: 0.006 | inactive: 0.072 | inactive: 0.015 | inactive: 0.004 | inactive: 0.024 | inactive: -0.034 | inactive: -0.033 | inactive: -0.033 | inactive: -0.016 | inactive: -0.032 | inactive: -0.018 | inactive: -0.023 | inactive: 0.004 | inactive: -0.023 | inactive: -0.017 | inactive: 0.082 |
| TRAM1 (UniProt Q15629) | inactive: 0.046 | inactive: -0.099 | inactive: -0.056 | inactive: 0.156 | inactive: -0.049 | inactive: 0.056 | inactive: -0.058 | inactive: 0.017 | inactive: -0.007 | inactive: -0.02 | inactive: -0.187 | inactive: 0.037 | inactive: -0.122 | inactive: -0.052 | inactive: -0.064 | inactive: -0.324 | inactive: 0.04 | inactive: -0.086 | inactive: -0.067 | inactive: 0.126 |
| TRAPPC12 (UniProt Q8WVT3) | inactive: -0.009 | inactive: -0.079 | inactive: 0.063 | inactive: 0.002 | inactive: -0.039 | inactive: 0.065 | inactive: 0.057 | inactive: 0.034 | inactive: 0.01 | inactive: 0.022 | inactive: 0.02 | inactive: -0.017 | inactive: -0.033 | inactive: -0.017 | inactive: 0.012 | inactive: -0.042 | inactive: -0.029 | inactive: -0.036 | inactive: -0.039 | inactive: 0.048 |
| TRIM21 (UniProt P19474) | inactive: 0.153 | inactive: 0.1 | inactive: -0.048 | inactive: 0.047 | inactive: -0.005 | inactive: 0.005 | inactive: 0.254 | inactive: -0.1 | inactive: 0.021 | inactive: 0.029 | inactive: -0.069 | inactive: -0.14 | inactive: 0.005 | inactive: 0.29 | inactive: 0.05 | inactive: -0.031 | inactive: 0.074 | inactive: -0.092 | inactive: -0.116 | inactive: -0.12 |
| TRIM24 (UniProt O15164) | inactive: -0.008 | inactive: -0.072 | inactive: 0.109 | inactive: 0.021 | inactive: -0.143 | inactive: 0.059 | inactive: 0.056 | inactive: -0.02 | inactive: 0.019 | inactive: -0.018 | inactive: -0.011 | inactive: -0.036 | inactive: -0.026 | inactive: 0.02 | inactive: 0.032 | inactive: -0.102 | inactive: 0.05 | inactive: -0.012 | inactive: -0.072 | inactive: -0.012 |
| TRMU (UniProt O75648) | inactive: -0.003 | inactive: -0.042 | inactive: -0.021 | inactive: -0.023 | inactive: -0.071 | inactive: 0.051 | inactive: -0.028 | inactive: 0.069 | inactive: 0.025 | inactive: -0.029 | inactive: -0.026 | inactive: 0.104 | inactive: -0.097 | inactive: 0.015 | inactive: -0.037 | inactive: -0.143 | inactive: 0.045 | inactive: 0.047 | inactive: -0.146 | inactive: -0.055 |
| TRIM33 isoform 2 (UniProt Q9UPN9) | inactive: -0.029 | inactive: -0.131 | inactive: 0.016 | inactive: -0.001 | inactive: -0.006 | inactive: 0.006 | inactive: 0.052 | inactive: -0.003 | inactive: 0.046 | inactive: 0.005 | inactive: -0.034 | inactive: 0.008 | inactive: -0.015 | inactive: -0.07 | inactive: -0.002 | inactive: -0.023 | inactive: 0.011 | inactive: 0.021 | inactive: -0.038 | inactive: 0.056 |
| TRIM25 (UniProt Q14258) | inactive: 0.022 | inactive: -0.04 | inactive: 0.009 | inactive: -0.009 | inactive: 0.042 | inactive: -0.011 | inactive: -0.058 | inactive: -0.01 | inactive: -0.002 | inactive: -0.029 | inactive: 0.009 | inactive: -0.031 | inactive: 0.1 | inactive: 0.031 | inactive: -0.021 | inactive: 0 | inactive: 0.03 | inactive: -0.036 | inactive: -0.012 | inactive: -0.038 |
| TRMT1L (UniProt Q7Z2T5) | inactive: -0.041 | inactive: -0.082 | inactive: -0.003 | inactive: 0.04 | inactive: -0.035 | inactive: 0.039 | inactive: 0.013 | inactive: -0.042 | inactive: 0.002 | inactive: -0.035 | inactive: -0.003 | inactive: 0.021 | inactive: -0.046 | inactive: -0.053 | inactive: 0.03 | inactive: 0 | inactive: -0.017 | inactive: 0.006 | inactive: 0.016 | inactive: 0.08 |
| TRMT61B (UniProt Q9BVS5) | inactive: 0.019 | inactive: 0.009 | inactive: 0.024 | inactive: 0.02 | inactive: 0.05 | inactive: 0.009 | inactive: 0 | inactive: 0.005 | inactive: 0.008 | inactive: -0.043 | inactive: 0.02 | inactive: -0.008 | inactive: 0.004 | inactive: -0.047 | inactive: -0.039 | inactive: 0.075 | inactive: -0.036 | inactive: -0.019 | inactive: 0.002 | inactive: 0.015 |

Reference: the supplement of paper PMC10849652
